According to US20150253330A1, “PRE-SELECTION OF SUBJECTS FOR THERAPEUTIC TREATMENT WITH AN HSP90 INHIBITOR BASED ON HYPOXIC STATUS” (Synta Pharmaceuticals Corp., priority 2012, published 2015):
Some results were stated once for a whole list of compounds, not compound by compound.

Tested on: KRAS mutant NSCLC cell lines
Assay: Combinatorial viability analysis in KRAS mutant NSCLC cell lines
Format: cell-based
Settings: KRAS mutant NSCLC cells in vitro
Experimental: For combinatorial analysis, cells were seeded in 96-well plates at a predetermined, optimum growth density for 24 h prior to the addition of drug or vehicle to the culture medium. Drug combinations were applied at a non-constant ratio over a range of concentrations for 72 or 96 hours. […] Cell viability was assessed by either AlamarBlue® (Invitrogen, Carlsbad, Calif.) or CellTiter-Glo® assays and normalized to vehicle controls. For each combination study, the level of growth inhibition (fraction affected) is plotted relative to vehicle control. Data are presented as one relevant combination point and the corresponding single agent data for each cell line tested.

| SMILES | Increases in cell death when combined with ganetespib |
| --- | --- |
| Nc1ccn([C@@H]2O[C@H](CO)[C@@H](O)C2(F)F)c(=O)n1 [gemcitabine, reference compound] | up to 4 fold |
| Nc1nc2[nH]cc(CCc3ccc(C(=O)N[C@@H](CCC(=O)O)C(=O)O)cc3)c2c(=O)[nH]1 [pemetrexed, reference compound] | up to 4 fold |
